PubChem BioAssay AID743456 | Peter MacCallum Cancer Centre | 2014
The whole screen tested 878 reagents; below is a random part of them. 27 of all reagents (3.1%) were called active. 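27 mimics are marked active, unlike an earlier stated count of 24; the viability threshold is described inconsistently.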 A number with no mark means an inactive call. Not stated in the record: the amount of reagent.

- Screen: 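miRNA mimics altering how resistant colon cancer cells respond to vorinostat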 (primary screen)
- Cells: human HCT116-VR colon cancer cells, a vorinostat-resistant HCT116 line
- Reagent: miRNA mimic
- Timing: about 3 days from transfection to readout; drug present for the last 24 h
- Treatment: vorinostat at 2.5 µM final for 24 h
- Measured: 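Per-well live-cell protease fluorescence and caspase luminescence under 2.5 µM vorinostat for 24 h, scored as robust z-scores and against mock transfection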
- Reading the numbers: viability robust z-score and viability vs mock transfection: higher = more viable cells; caspase robust z-score: higher = more caspase activity, more apoptosis
- Call rule: 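a mimic counts as active if it lands in a lowered-viability class or a caspase-activation class; wells with too few cells without drug are left out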

microRNA | viability robust z-score | caspase robust z-score | viability hit class | caspase hit class | viability vs mock transfection
hsa-let-7e | -0.16 | -0.15 | no change | no change | 0.76
hsa-miR-7 | -1.28 | -0.45 | no change | no change | 0.6
hsa-miR-615-5p | 1.1 | -0.8 | no change | no change | 0.98
hsa-miR-486-3p | -1.58 (active) | 5.21 | no change | caspase activation | 0.47
hsa-miR-328 | 0.29 | 1.53 | no change | no change | 0.83
hsa-miR-643 | 0.64 | -0.77 | no change | no change | 0.86
hsa-miR-92a-2* | -1.58 | 3.93 | no change | no change | 0.46
hsa-miR-28-3p | -0.86 | 1.31 | no change | no change | 0.67
hsa-miR-489 | -2.1 | 2.38 | no change | no change | 0.48
hsa-miR-424 | -0.42 | 1.38 | no change | no change | 0.68
hsa-miR-558 | -0.06 | 3.68 | no change | no change | 0.74
hsa-miR-608 | -0.96 | 4.12 | no change | no change | 0.58
hsa-miR-520f | 0.53 | 3.75 | no change | no change | 0.87
hsa-miR-1278 | -0.96 | 4.14 | no change | no change | 0.66
hsa-miR-1249 | -0.55 | -0.52 | no change | no change | 0.72
hsa-miR-579 | -0.53 | -0.3 | no change | no change | 0.66
hsa-miR-135b* | -1.11 | 4 | no change | no change | 0.55
hsa-miR-219-5p | 1.5 | -0.52 | no change | no change | 1.02
hsa-miR-508-5p | -0.38 | -0.2 | no change | no change | 0.68
hsa-miR-1181 | 0.15 | 1.14 | no change | no change | 0.81
hsa-miR-106b | 0.64 | 0.12 | no change | no change | 0.9
hsa-miR-1265 | -0.15 | 1.44 | no change | no change | 0.72
hsa-miR-195* | 1.19 | -0.44 | no change | no change | 0.97
hsa-miR-197 | -3.28 (active) | 1.08 | reduced viability | no change | 0.16
hsa-miR-101 | 0.32 | -0.16 | no change | no change | 0.8
hsa-miR-548d-3p | 1.36 | -0.66 | no change | no change | 1.02
hsa-miR-943 | 0.43 | -0.3 | no change | no change | 0.86

Records listed so far called active (2):
microRNA | viability robust z-score | caspase robust z-score | viability hit class | caspase hit class | viability vs mock transfection
hsa-miR-486-3p | -1.58 (active) | 5.21 | no change | caspase activation | 0.47
hsa-miR-197 | -3.28 (active) | 1.08 | reduced viability | no change | 0.16

More results follow.
microRNA | viability robust z-score | caspase robust z-score | viability hit class | caspase hit class | viability vs mock transfection
hsa-miR-302f | -1.24 | -1.02 | no change | no change | 0.61
hsa-miR-33b | -0.16 | -0.48 | no change | no change | 0.76
hsa-miR-1246 | 0.2 | 1.27 | no change | no change | 0.79
hsa-miR-509-3p | -0.06 | 1.1 | no change | no change | 0.74
hsa-miR-26a-2* | 0.74 | -0.55 | no change | no change | 0.91
hsa-miR-375 | 0.08 | 0.97 | no change | no change | 0.8
hsa-miR-146a* | 0.88 | -0.44 | no change | no change | 0.94
hsa-miR-675* | -0.44 | -0.72 | no change | no change | 0.73
hsa-miR-663 | 0.22 | -0.59 | no change | no change | 0.79
hsa-miR-196a* | 0.82 | 2.4 | no change | no change | 0.9
hsa-miR-586 | 0.78 | -0.42 | no change | no change | 0.89
hsa-miR-744 | -0.82 | 0.58 | no change | no change | 0.6
hsa-miR-133b | -0.71 | 2.69 | no change | no change | 0.68
hsa-miR-147b | 0.97 | 0.44 | no change | no change | 0.92
hsa-miR-513a-3p | -0.36 | -0.66 | no change | no change | 0.68
hsa-miR-1972 | -0.2 | 2.67 | no change | no change | 0.76
hsa-miR-770-5p | 1.38 | -0.43 | no change | no change | 1
hsa-miR-520h | 0.34 | -0.26 | no change | no change | 0.81
hsa-miR-138-2* | 0.34 | -0.36 | no change | no change | 0.84
hsa-miR-1233 | 0.05 | 3.62 | no change | no change | 0.79
hsa-miR-130a | -0.12 | 1.13 | no change | no change | 0.78
hsa-miR-493* | 0.31 | 2.74 | no change | no change | 0.8
hsa-miR-513c | 0.92 | 0.62 | no change | no change | 0.91
hsa-miR-1243 | -1.29 | 3.06 | no change | no change | 0.6
hsa-miR-937 | 0.9 | -0.14 | no change | no change | 0.91
hsa-miR-26a-1* | 1.34 | -0.68 | no change | no change | 0.98
hsa-miR-1286 | -1.7 (active) | 5.69 | no change | caspase activation | 0.5
hsa-miR-150* | 0.66 | -0.4 | no change | no change | 0.87
hsa-miR-640 | 0.46 | -0.57 | no change | no change | 0.87
hsa-miR-1290 | 1.1 | -0.38 | no change | no change | 0.98
hsa-miR-569 | -1.23 | 0.28 | no change | no change | 0.61
hsa-miR-887 | -0.46 | 1.88 | no change | no change | 0.71
hsa-miR-211 | -0.76 | -0.86 | no change | no change | 0.68
hsa-miR-642 | 0.2 | -0.46 | no change | no change | 0.82
hsa-miR-519e* | -0.49 | 2.19 | no change | no change | 0.71
hsa-miR-578 | 0 | 1.75 | no change | no change | 0.75
